Results deposited as PubChem BioAssay AID1224830 (NIAID, 2016)

Assay: 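Host factors that control LPS-induced TNF expression in human macrophages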 (primary screen)
System: human THP-1 monocytic leukaemia cells, TNF dual-luciferase reporter clone, PMA-differentiated to macrophage-like cells
Reagent: siRNA pool against human genes, 50 nM
Time to read-out: LPS for 4 h, given about 3 days after siRNA transfection
Treatment: bacterial LPS (TLR4 ligand), 10 ng/ml
Measurement: 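Ratio of firefly to renilla light, scaled to the plate median and expressed as a robust z-score per replicate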
Scale: TNF reporter robust z-score: higher = stronger TNF reporter response to LPS
Hit rule: 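Each well counts as active if its z-score is over 2.8 or under -1.5; controls are left without a call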
This is one part, drawn at random, of about 18,000 reagents. Of all reagents, about 2,900 (16%) were called active. 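Calls are made per well; low scores hint the gene aids the LPS response, high scores that it dampens it.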 Repeated entries: four replicate wells of each siRNA pool.

The first 3 records, ahead of the listing:
no.	gene	TNF reporter robust z-score	outcome
1	OTUD4 (GeneID 54726)	-0.34	inactive
2	OTUD4 (GeneID 54726)	-0.58	inactive
3	OTUD4 (GeneID 54726)	0.44	inactive

Main list, from the first entry:
no.	gene	TNF reporter robust z-score	outcome
1	OTUD4 (GeneID 54726)	-0.34	inactive
2	OTUD4 (GeneID 54726)	-0.58	inactive
3	OTUD4 (GeneID 54726)	0.44	inactive
4	OTUD4 (GeneID 54726)	0.07	inactive
5	ZNF671 (GeneID 79891)	-0.65	inactive
6	ZNF671 (GeneID 79891)	0.56	inactive
7	ZNF671 (GeneID 79891)	0.37	inactive
8	ZNF671 (GeneID 79891)	-0.35	inactive
9	SYT2 (GeneID 127833)	2.71	inactive
10	SYT2 (GeneID 127833)	1.47	inactive
11	SYT2 (GeneID 127833)	0.5	inactive
12	SYT2 (GeneID 127833)	-0.3	inactive
13	CRCT1 (GeneID 54544)	2.76	inactive
14	CRCT1 (GeneID 54544)	3.83	active
15	CRCT1 (GeneID 54544)	1.88	inactive
16	CRCT1 (GeneID 54544)	2.79	inactive
17	TSC22D4 (GeneID 81628)	1.06	inactive
18	TSC22D4 (GeneID 81628)	0.56	inactive
19	TSC22D4 (GeneID 81628)	0.69	inactive
20	TSC22D4 (GeneID 81628)	-0.13	inactive
21	GPX2 (GeneID 2877)	0.37	inactive
22	GPX2 (GeneID 2877)	0.51	inactive
23	GPX2 (GeneID 2877)	0.12	inactive
24	GPX2 (GeneID 2877)	1.41	inactive
25	TSKS (GeneID 60385)	-1.37	inactive
26	TSKS (GeneID 60385)	-1.67	active
27	TSKS (GeneID 60385)	-1.13	inactive
28	TSKS (GeneID 60385)	-1.39	inactive
29	ZBTB2 (GeneID 57621)	-0.64	inactive
30	ZBTB2 (GeneID 57621)	-0.94	inactive
31	ZBTB2 (GeneID 57621)	-1.03	inactive
32	ZBTB2 (GeneID 57621)	2.23	inactive
33	SPOCK3 (GeneID 50859)	-0.1	inactive
34	SPOCK3 (GeneID 50859)	-0.43	inactive
35	SPOCK3 (GeneID 50859)	-0.19	inactive
36	SPOCK3 (GeneID 50859)	-0.03	inactive
37	TAS2R60 (GeneID 338398)	-0.65	inactive
38	TAS2R60 (GeneID 338398)	0.12	inactive
39	TAS2R60 (GeneID 338398)	-0.5	inactive
40	TAS2R60 (GeneID 338398)	0.81	inactive
41	SH2D1B (GeneID 117157)	0.48	inactive
42	SH2D1B (GeneID 117157)	1.25	inactive
43	SH2D1B (GeneID 117157)	0.89	inactive
44	SH2D1B (GeneID 117157)	1.01	inactive
45	PHB1 (GeneID 5245)	0.59	inactive
46	PHB1 (GeneID 5245)	0.24	inactive
47	PHB1 (GeneID 5245)	0.03	inactive
48	PHB1 (GeneID 5245)	-0.12	inactive
